Measured values taken from PMC8384837.
Positions count from the first letter of the chain named. The list shows a part of the results. For part of these data: At the low end of the ranking the order means little. For part of these data: Construct or isoform of the protein are uncertain.

Tests used:
Conditions in all cases: yeast three-hybrid, YBZ-1, SC-Leu-His + 0.5 mM 3-AT, 4 days
[1] = target: T1, PUM1 PUF domain R3-THE R4-TFR C935T + R936H + Q939E + N971T + H972F + Q975R (UniProt Q14671)
T1 sequence: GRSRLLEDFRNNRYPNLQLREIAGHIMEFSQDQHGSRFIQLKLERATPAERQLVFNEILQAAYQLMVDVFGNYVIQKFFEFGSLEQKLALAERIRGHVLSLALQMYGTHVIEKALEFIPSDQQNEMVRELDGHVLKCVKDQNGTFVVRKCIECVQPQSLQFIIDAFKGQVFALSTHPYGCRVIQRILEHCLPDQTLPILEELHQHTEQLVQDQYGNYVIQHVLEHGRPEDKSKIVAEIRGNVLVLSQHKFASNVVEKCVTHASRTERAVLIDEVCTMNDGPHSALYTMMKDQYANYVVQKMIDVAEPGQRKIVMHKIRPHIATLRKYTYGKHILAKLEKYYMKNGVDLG

[2] = target: T2, PUM1 PUF domain R3-THE R4-TFR R7-NPG C935T + R936H + Q939E + N971T + H972F + Q975R + S1079N + N1080P + E1083G (UniProt Q14671)
T2 sequence: T1 sequence with S252N, N253P, E256G

[3] = target: T3, PUM1 PUF domain R5-PHQ R6-SWD C1007P + R1008H + N1043S + Y1044W + Q1047D (UniProt Q14671)
T3 sequence: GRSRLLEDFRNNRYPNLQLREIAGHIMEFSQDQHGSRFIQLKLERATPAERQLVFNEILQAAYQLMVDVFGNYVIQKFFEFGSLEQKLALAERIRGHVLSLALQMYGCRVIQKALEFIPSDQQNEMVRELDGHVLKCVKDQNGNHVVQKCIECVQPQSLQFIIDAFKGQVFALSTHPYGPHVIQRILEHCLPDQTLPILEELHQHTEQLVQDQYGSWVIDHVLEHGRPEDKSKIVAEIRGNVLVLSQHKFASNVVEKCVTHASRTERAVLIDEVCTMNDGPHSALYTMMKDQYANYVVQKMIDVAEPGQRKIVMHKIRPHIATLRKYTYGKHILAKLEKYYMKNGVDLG

[4] = target: T4, PUM1 PUF domain R6-SWD R7-NPG N1043S + Y1044W + Q1047D + S1079N + N1080P + E1083G (Homo sapiens) (UniProt Q14671)
T4 sequence: T3 sequence with P180C, H181R, S252N, N253P, E256G

[5] = target: T5, PUM1 PUF domain R3-THE R4-TFR R7-NPG C935T + R936H + Q939E + N971T + H972F + Q975R + S1079N + N1080P + E1083G (Homo sapiens) (UniProt Q14671)
T5 sequence: T1 sequence with S252N, N253P, E256G

[6] = target: T6, PUM1 PUF domain R6-SWD R7-NPG N1043S + Y1044W + Q1047D + S1079N + N1080P + E1083G (UniProt Q14671)
T6 sequence: T3 sequence with P180C, H181R, S252N, N253P, E256G

GGCUAGAACUAGUGGAUCCCCCGGCGCCCGGCGGCUCGAGCCCGGGUAAGGUUAAAUCGUCUGCAUGCCGCCGGGCGCCAUGCCUGCAGGUCGACUCUAGAAAACAUG
binding signal (log2 enrichment (interaction score)) [1]: -6.33
binding signal (log2 enrichment (interaction score)) [2]: -2.93
binding signal (log2 enrichment (interaction score)) [3]: -6.6
binding signal (log2 enrichment (interaction score)) [4]: -1.86

GGCUAGAACUAGUGGAUCCCCCGGCGCCCGGCGGCUCGAGCCCGGGUAAGAUAACGUAGUCUGCAUGCCGCCGGGCGCCAUGCCUGCAGGUCGACUCUAGAAAACAUG
binding signal (log2 enrichment (interaction score)) [1]: < -6.53
binding signal (log2 enrichment (interaction score)) [3]: < -7.24

GGCUAGAACUAGUGGAUCCCCCGGCGCCCGGCGGCUCGAGCCCGGGUAAGUGGGCUUUGUCUGCAUGCCGCCGGGCGCCAUGCCUGCAGGUCGACUCUAGAAAACAUG
binding signal (log2 enrichment (interaction score)) [1]: -7.67
binding signal (log2 enrichment (interaction score)) [3]: < -7.87

GGCUAGAACUAGUGGAUCCCCCGGCGCCCGGCGGCUCGAGCCCGGGUAAGUGCGAAUAGUCUGCAUGCCGCCGGGCGCCAUGCCUGCAGGUCGACUCUAGAAAACAUG
binding signal (log2 enrichment (interaction score)) [1]: < -6.74
binding signal (log2 enrichment (interaction score)) [3]: -7.38

GGCUAGAACUAGUGGAUCCCCCGGCGCCCGGCGGCUCGAGCCCGGGUAAGCGUAAGUUGUCUGCAUGCCGCCGGGCGCCAUGCCUGCAGGUCGACUCUAGAAAACAUG
binding signal (log2 enrichment (interaction score)) [1]: -7.29
binding signal (log2 enrichment (interaction score)) [3]: < -9.04

GGCUAGAACUAGUGGAUCCCCCGGCGCCCGGCGGCUCGAGCCCGGGUAAGUUGAUGUUGUCUGCAUGCCGCCGGGCGCCAUGCCUGCAGGUCGACUCUAGAAAACAUG
binding signal (log2 enrichment (interaction score)) [1]: < -6.97
binding signal (log2 enrichment (interaction score)) [3]: -8.28

GGCUAGAACUAGUGGAUCCCCCGGCGCCCGGCGGCUCGAGCCCGGGUAAGCGGAACAAGUCUGCAUGCCGCCGGGCGCCAUGCCUGCAGGUCGACUCUAGAAAACAUG
binding signal (log2 enrichment (interaction score)) [1]: < -7.56
binding signal (log2 enrichment (interaction score)) [3]: -7.42

GGCUAGAACUAGUGGAUCCCCCGGCGCCCGGCGGCUCGAGCCCGGGUAAGUGAACAAAGUCUGCAUGCCGCCGGGCGCCAUGCCUGCAGGUCGACUCUAGAAAACAUG
binding signal (log2 enrichment (interaction score)) [1]: -6.87
binding signal (log2 enrichment (interaction score)) [3]: -7.91

GGCUAGAACUAGUGGAUCCCCCGGCGCCCGGCGGCUCGAGCCCGGGUAAGUGUGACUCGUCUGCAUGCCGCCGGGCGCCAUGCCUGCAGGUCGACUCUAGAAAACAUG
binding signal (log2 enrichment (interaction score)) [1]: -7.19
binding signal (log2 enrichment (interaction score)) [3]: < -8.08

GGCUAGAACUAGUGGAUCCCCCGGCGCCCGGCGGCUCGAGCCCGGGUAAGCUGAUGUGGUCUGCAUGCCGCCGGGCGCCAUGCCUGCAGGUCGACUCUAGAAAACAUG
binding signal (log2 enrichment (interaction score)) [1]: -6.75
binding signal (log2 enrichment (interaction score)) [4]: -1.82

GGCUAGAACUAGUGGAUCCCCCGGCGCCCGGCGGCUCGAGCCCGGGUAAGUAGCGGUAGUCUGCAUGCCGCCGGGCGCCAUGCCUGCAGGUCGACUCUAGAAAACAUG
binding signal (log2 enrichment (interaction score)) [5]: < -1.95
binding signal (log2 enrichment (interaction score)) [3]: < -8.02

GGCUAGAACUAGUGGAUCCCCCGGCGCCCGGCGGCUCGAGCCCGGGUAAGUGGGCAUAGUCUGCAUGCCGCCGGGCGCCAUGCCUGCAGGUCGACUCUAGAAAACAUG
binding signal (log2 enrichment (interaction score)) [1]: < -6.84
binding signal (log2 enrichment (interaction score)) [3]: -8.22
binding signal (log2 enrichment (interaction score)) [4]: -1.53

GGCUAGAACUAGUGGAUCCCCCGGCGCCCGGCGGCUCGAGCCCGGGUAAGAUCAAAAAGUCUGCAUGCCGCCGGGCGCCAUGCCUGCAGGUCGACUCUAGAAAACAUG
binding signal (log2 enrichment (interaction score)) [5]: -1.3

GGCUAGAACUAGUGGAUCCCCCGGCGCCCGGCGGCUCGAGCCCGGGUAAGUAGAACUCGUCUGCAUGCCGCCGGGCGCCAUGCCUGCAGGUCGACUCUAGAAAACAUG
binding signal (log2 enrichment (interaction score)) [1]: -7.23
binding signal (log2 enrichment (interaction score)) [3]: -7.18
binding signal (log2 enrichment (interaction score)) [4]: -1.25

GGCUAGAACUAGUGGAUCCCCCGGCGCCCGGCGGCUCGAGCCCGGGUAAGCUUCAAAAGUCUGCAUGCCGCCGGGCGCCAUGCCUGCAGGUCGACUCUAGAAAACAUG
binding signal (log2 enrichment (interaction score)) [5]: < -1.79

GGCUAGAACUAGUGGAUCCCCCGGCGCCCGGCGGCUCGAGCCCGGGUAAGUUAAGGUAGUCUGCAUGCCGCCGGGCGCCAUGCCUGCAGGUCGACUCUAGAAAACAUG
binding signal (log2 enrichment (interaction score)) [5]: -1.92
binding signal (log2 enrichment (interaction score)) [3]: < -8.49

GGCUAGAACUAGUGGAUCCCCCGGCGCCCGGCGGCUCGAGCCCGGGUAAGUGUUAAUCGUCUGCAUGCCGCCGGGCGCCAUGCCUGCAGGUCGACUCUAGAAAACAUG
binding signal (log2 enrichment (interaction score)) [1]: -8.29
binding signal (log2 enrichment (interaction score)) [4]: -0.77

GGCUAGAACUAGUGGAUCCCCCGGCGCCCGGCGGCUCGAGCCCGGGUAAGUUGACUUAGUCUGCAUGCCGCCGGGCGCCAUGCCUGCAGGUCGACUCUAGAAAACAUG
binding signal (log2 enrichment (interaction score)) [1]: -6.6
binding signal (log2 enrichment (interaction score)) [3]: -8.04
binding signal (log2 enrichment (interaction score)) [4]: -0.64

GGCUAGAACUAGUGGAUCCCCCGGCGCCCGGCGGCUCGAGCCCGGGUAAGCUGAUGACGUCUGCAUGCCGCCGGGCGCCAUGCCUGCAGGUCGACUCUAGAAAACAUG
binding signal (log2 enrichment (interaction score)) [5]: -1.96

GGCUAGAACUAGUGGAUCCCCCGGCGCCCGGCGGCUCGAGCCCGGGUAAGUGCAGAAAGUCUGCAUGCCGCCGGGCGCCAUGCCUGCAGGUCGACUCUAGAAAACAUG
binding signal (log2 enrichment (interaction score)) [1]: < -6.83
binding signal (log2 enrichment (interaction score)) [3]: -7.37
binding signal (log2 enrichment (interaction score)) [6]: -2.24

GGCUAGAACUAGUGGAUCCCCCGGCGCCCGGCGGCUCGAGCCCGGGUAAGUAUGAAUAGUCUGCAUGCCGCCGGGCGCCAUGCCUGCAGGUCGACUCUAGAAAACAUG
binding signal (log2 enrichment (interaction score)) [5]: -1.66
binding signal (log2 enrichment (interaction score)) [3]: < -7.6
